In the assay the target is FOXO3a (forkhead box, class O, 3a) (human (endogenous in SH-SY5Y)) (UniProt O43524). Nature of the assay: co-IP; Pierce Co-Immunoprecipitation Kit; 200 ug pre-cleared lysate of untreated or tunicamycin (1 uM) treated SH-SY5Y cells on 1 ug FoxO3a antibody covalently linked to amine-active resin, overnight at 4°C; control resin as negative control; western blot for CHOP.

Sequences of proteins named here, by UniProt entry; tags and fusion partners are left off.
UniProt O43524: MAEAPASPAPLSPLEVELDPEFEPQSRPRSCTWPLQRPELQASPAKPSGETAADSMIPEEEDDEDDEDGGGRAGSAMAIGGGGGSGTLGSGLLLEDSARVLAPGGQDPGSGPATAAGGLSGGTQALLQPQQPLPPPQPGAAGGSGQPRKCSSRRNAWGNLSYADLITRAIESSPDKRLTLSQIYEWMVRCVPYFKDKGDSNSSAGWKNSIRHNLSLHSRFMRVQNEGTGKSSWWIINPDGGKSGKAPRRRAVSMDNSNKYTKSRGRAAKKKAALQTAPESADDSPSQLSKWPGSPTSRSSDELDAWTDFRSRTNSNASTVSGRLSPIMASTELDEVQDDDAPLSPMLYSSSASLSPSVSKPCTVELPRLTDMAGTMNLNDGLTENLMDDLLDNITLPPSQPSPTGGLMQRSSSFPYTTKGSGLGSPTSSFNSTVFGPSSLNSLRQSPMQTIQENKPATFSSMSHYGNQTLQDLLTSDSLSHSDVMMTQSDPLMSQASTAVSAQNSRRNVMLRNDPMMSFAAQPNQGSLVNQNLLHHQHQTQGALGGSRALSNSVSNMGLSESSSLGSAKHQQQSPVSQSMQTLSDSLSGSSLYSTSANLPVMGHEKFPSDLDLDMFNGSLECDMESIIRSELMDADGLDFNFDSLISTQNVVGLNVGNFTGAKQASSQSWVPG
UniProt P35638: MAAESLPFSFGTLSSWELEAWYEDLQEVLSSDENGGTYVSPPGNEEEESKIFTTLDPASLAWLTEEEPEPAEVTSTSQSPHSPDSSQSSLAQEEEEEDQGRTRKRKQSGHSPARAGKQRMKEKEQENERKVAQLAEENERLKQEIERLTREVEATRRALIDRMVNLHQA

These are yes or no findings as the source states them, for the method shown. Binding seen in cells or lysates may run through a third protein. Some results given as binding are weak or reduced against the parent protein; the word gives no strength.

Consider “CHOP (C/EBP homologous protein) (from UniProt P35638 1-169)”, for which the binding result is “binds”.

(Values after article PMC3386252.)
